# Experimental data published in the supplement of paper PMC8728848.
# The other results are listed elsewhere or left out.
# How the values were obtained:
# Assay in all cases: glycan array binding signal (z-score within array); higher = stronger binding
# Conditions in all cases: glycan notation: IUPAC condensed, linker removed
# [1] = target: Neu5Ac(a2-6)Gal(b1-3)GlcNAc(b1-3)[Gal(b1-4)GlcNAc(b1-6)]Gal(b1-4)Glc
# Outline: (§1)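 Glycan array data came from 3228 arrays in the Consortium for Functional Glycomics database, and only arrays with an available protein sequence were kept. Glycan names were put into IUPAC-condensed notation, and columns mapping to the same glycan were averaged. The binding signal is a within-array Z-score, averaged across arrays of one protein sequence run at different concentrations or buffers and across linkers. A negative Z-score can be read as non-binding.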
# Neu5Ac(a2-6)Gal(b1-4)Glc = target: Neu5Ac(a2-6)Gal(b1-4)Glc
# Outline: as §1
# [2] = target: Neu5Ac(a2-6)Gal(b1-4)GlcNAc
# Outline: as §1
# [3] = target: Neu5Ac(a2-6)Gal(b1-4)GlcNAc(b1-2)Man
# Outline: as §1
# [4] = target: Neu5Ac(a2-6)Gal(b1-4)GlcNAc(b1-2)Man(a1-3)Man(b1-4)GlcNAc(b1-4)GlcNAc
# Outline: as §1
# [5] = target: Neu5Ac(a2-6)Gal(b1-4)GlcNAc(b1-2)Man(a1-3)[Gal(b1-4)GlcNAc(b1-2)Man(a1-6)]Man(b1-4)GlcNAc(b1-4)GlcNAc
# Outline: as §1
# [6] = target: Neu5Ac(a2-6)Gal(b1-4)GlcNAc(b1-2)Man(a1-3)[GlcNAc(b1-2)Man(a1-6)]Man(b1-4)GlcNAc(b1-4)GlcNAc
# Outline: as §1
# [7] = target: Neu5Ac(a2-6)Gal(b1-4)GlcNAc(b1-2)Man(a1-3)[GlcNAc(b1-4)][Neu5Ac(a2-6)Gal(b1-4)GlcNAc(b1-2)Man(a1-6)]Man(b1-4)GlcNAc(b1-4)GlcNAc
# Outline: as §1
# [8] = target: Neu5Ac(a2-6)Gal(b1-4)GlcNAc(b1-2)Man(a1-3)[Man(a1-6)]Man(b1-4)GlcNAc(b1-4)GlcNAc
# Outline: as §1
# [9] = target: Neu5Ac(a2-6)Gal(b1-4)GlcNAc(b1-2)Man(a1-3)[Neu5Ac(a2-3)Gal(b1-4)GlcNAc(b1-2)Man(a1-6)]Man(b1-4)GlcNAc(b1-4)GlcNAc
# Outline: as §1
# [10] = target: Neu5Ac(a2-6)Gal(b1-4)GlcNAc(b1-2)Man(a1-3)[Neu5Ac(a2-6)Gal(b1-4)GlcNAc(b1-2)Man(a1-6)]Man(b1-4)GlcNAc(b1-4)GlcNAc
# Outline: as §1
# [11] = target: Neu5Ac(a2-6)Gal(b1-4)GlcNAc(b1-2)Man(a1-3)[Neu5Ac(a2-6)Gal(b1-4)GlcNAc(b1-2)Man(a1-6)]Man(b1-4)GlcNAc(b1-4)[Fuc(a1-6)]GlcNAc
# Outline: as §1
# [12] = target: Neu5Ac(a2-6)Gal(b1-4)GlcNAc(b1-2)Man(a1-6)Man(b1-4)GlcNAc(b1-4)GlcNAc
# Outline: as §1
# [13] = target: Neu5Ac(a2-6)Gal(b1-4)GlcNAc(b1-2)Man(a1-6)[Gal(b1-4)GlcNAc(b1-2)Man(a1-3)]Man(b1-4)GlcNAc(b1-4)GlcNAc
# Outline: as §1
# [14] = target: Neu5Ac(a2-6)Gal(b1-4)GlcNAc(b1-2)Man(a1-6)[GlcNAc(b1-2)Man(a1-3)]Man(b1-4)GlcNAc(b1-4)GlcNAc
# Outline: as §1
# [15] = target: Neu5Ac(a2-6)Gal(b1-4)GlcNAc(b1-2)Man(a1-6)[Man(a1-3)]Man(b1-4)GlcNAc(b1-4)GlcNAc
# Outline: as §1
# [16] = target: Neu5Ac(a2-6)Gal(b1-4)GlcNAc(b1-2)[Neu5Ac(a2-6)Gal(b1-4)GlcNAc(b1-4)]Man(a1-3)[GlcNAc(b1-4)][Neu5Ac(a2-6)Gal(b1-4)GlcNAc(b1-2)[Neu5Ac(a2-6)Gal(b1-4)GlcNAc(b1-6)]Man(a1-6)]Man(b1-4)GlcNAc(b1-4)GlcNAc
# Outline: as §1
# [17] = target: Neu5Ac(a2-6)Gal(b1-4)GlcNAc(b1-2)[Neu5Ac(a2-6)Gal(b1-4)GlcNAc(b1-4)]Man(a1-3)[GlcNAc(b1-4)][Neu5Ac(a2-6)Gal(b1-4)GlcNAc(b1-4)Man(a1-6)]Man(b1-4)GlcNAc(b1-4)GlcNAc
# Outline: as §1
# [18] = target: Neu5Ac(a2-6)Gal(b1-4)GlcNAc(b1-2)[Neu5Ac(a2-6)Gal(b1-4)GlcNAc(b1-6)]Man(a1-6)[Neu5Ac(a2-6)Gal(b1-4)GlcNAc(b1-2)Man(a1-3)][GlcNAc(b1-4)]Man(b1-4)GlcNAc(b1-4)GlcNAc
# Outline: as §1
# [19] = target: Neu5Ac(a2-6)Gal(b1-4)GlcNAc(b1-3)Gal(b1-3)GlcNAc
# Outline: as §1
# [20] = target: Neu5Ac(a2-6)Gal(b1-4)GlcNAc(b1-3)Gal(b1-4)GlcNAc
# Outline: as §1
# [21] = target: Neu5Ac(a2-6)Gal(b1-4)GlcNAc(b1-3)Gal(b1-4)GlcNAc(b1-2)Man(a1-3)[Neu5Ac(a2-6)Gal(b1-4)GlcNAc(b1-3)Gal(b1-4)GlcNAc(b1-2)Man(a1-6)]GalNAc
# Outline: as §1
# [22] = target: Neu5Ac(a2-6)Gal(b1-4)GlcNAc(b1-3)Gal(b1-4)GlcNAc(b1-3)Gal(b1-4)GlcNAc
# Outline: as §1
# [23] = target: Neu5Ac(a2-6)Gal(b1-4)GlcNAc(b1-3)Gal(b1-4)GlcNAc(b1-3)Gal(b1-4)GlcNAc(b1-2)Man(a1-3)[Neu5Ac(a2-6)Gal(b1-4)GlcNAc(b1-3)Gal(b1-4)GlcNAc(b1-3)Gal(b1-4)GlcNAc(b1-2)Man(a1-6)]GalNAc
# Outline: as §1
# [24] = target: Neu5Ac(a2-6)Gal(b1-4)GlcNAc(b1-3)Gal(b1-4)GlcNAc(b1-3)GalNAc
# Outline: as §1
# [25] = target: Neu5Ac(a2-6)Gal(b1-4)GlcNAc(b1-3)Gal(b1-4)GlcNAc(b1-3)[Neu5Ac(a2-6)Gal(b1-4)GlcNAc(b1-3)Gal(b1-4)GlcNAc(b1-6)]GalNAc
# Outline: as §1
# [26] = target: Neu5Ac(a2-6)Gal(b1-4)GlcNAc(b1-3)Gal(b1-4)GlcNAc(b1-6)[Gal(b1-3)]GalNAc
# Outline: as §1
# [27] = target: Neu5Ac(a2-6)Gal(b1-4)GlcNAc(b1-3)Gal(b1-4)[Fuc(a1-3)]GlcNAc(b1-3)Gal(b1-4)[Fuc(a1-3)]GlcNAc
# Outline: as §1
# [28] = target: Neu5Ac(a2-6)Gal(b1-4)GlcNAc(b1-3)GalNAc
# Outline: as §1
# [29] = target: Neu5Ac(a2-6)Gal(b1-4)GlcNAc(b1-3)[Neu5Ac(a2-6)Gal(b1-4)GlcNAc(b1-6)]GalNAc
# Outline: as §1
# [30] = target: Neu5Ac(a2-6)Gal(b1-4)GlcNAc(b1-6)GalNAc
# Outline: as §1
# [31] = target: Neu5Ac(a2-6)Gal(b1-4)GlcNAc(b1-6)[Gal(b1-3)GlcNAc(b1-3)]Gal(b1-4)Glc
# Outline: as §1
# [32] = target: Neu5Ac(a2-6)Gal(b1-4)GlcNAc(b1-6)[Gal(b1-3)]GalNAc
# Outline: as §1
# [33] = target: Neu5Ac(a2-6)Gal(b1-4)GlcNAc6S
# Outline: as §1
# Neu5Ac(a2-6)GalNAc = target: Neu5Ac(a2-6)GalNAc
# Outline: as §1
# [34] = target: Neu5Ac(a2-6)GalNAc(b1-4)GlcNAc
# Outline: as §1
# [35] = target: Neu5Ac(a2-6)GalNAc(b1-4)GlcNAc6S
# Outline: as §1
# [36] = target: Neu5Ac(a2-6)GlcNAc(b1-4)GlcNAc
# Outline: as §1
binder,measurement,setting,value
TAL6-4LysM (Trichoderma atroviride) (protein) AADSIPSISPTGIITPTPTQSGMVSNCNKFYDVHSNDGCSAIASSQHVDLSSLYKWNPAIKTDCSGLQASVYVCIGILTTSMSTTSKLPTTTSKPSTTSKPPTGITTPTPTQSGMVKNCNKFYDVHSGDGCSAIASSQKVNLSSFYLWNPAVKTDCSGLQASVFVCIGTLTTSMSTTTSKLPTTTSKPSTTSKPPTGIITPTPTQNGMVKNCNKFYDVHSGDGCSAIASSQKVNLSSFYLWNPAVKTDCSGLQASVFVCVGTATTTTAAGITTPTPTQSGMVSGCNKFYDVHAGDGCSAIASSQKIALSSLYKWNPAVKTDCSGLQASVYICIGVGNAAAARVTGALEQKLISEEDLNSAVDHHHHHH,glycan array binding signal (z-score),[1],0.176
same,glycan array binding signal (z-score),Neu5Ac(a2-6)Gal(b1-4)Glc,0.221
same,glycan array binding signal (z-score),[2],1.91
same,glycan array binding signal (z-score),[3],-0.77
same,glycan array binding signal (z-score),[4],1.14
same,glycan array binding signal (z-score),[5],0.148
same,glycan array binding signal (z-score),[6],-0.493
same,glycan array binding signal (z-score),[7],-0.336
same,glycan array binding signal (z-score),[8],-1.28
same,glycan array binding signal (z-score),[9],0.793
same,glycan array binding signal (z-score),[10],-0.408
same,glycan array binding signal (z-score),[11],0.573
same,glycan array binding signal (z-score),[12],-1.04
same,glycan array binding signal (z-score),[13],0.656
same,glycan array binding signal (z-score),[14],-0.839
same,glycan array binding signal (z-score),[15],-0.594
same,glycan array binding signal (z-score),[16],0.213
same,glycan array binding signal (z-score),[17],-1.62
same,glycan array binding signal (z-score),[18],-0.279
same,glycan array binding signal (z-score),[19],0.252
same,glycan array binding signal (z-score),[20],-0.421
same,glycan array binding signal (z-score),[21],-1.39
same,glycan array binding signal (z-score),[22],-1.09
same,glycan array binding signal (z-score),[23],-0.881
same,glycan array binding signal (z-score),[24],3.9
same,glycan array binding signal (z-score),[25],1.4
same,glycan array binding signal (z-score),[26],1.64
same,glycan array binding signal (z-score),[27],-1.23
same,glycan array binding signal (z-score),[28],1.35
same,glycan array binding signal (z-score),[29],0.082
same,glycan array binding signal (z-score),[30],-0.71
same,glycan array binding signal (z-score),[31],-1.09
same,glycan array binding signal (z-score),[32],-1.19
same,glycan array binding signal (z-score),[33],1.36
same,glycan array binding signal (z-score),Neu5Ac(a2-6)GalNAc,0.18
same,glycan array binding signal (z-score),[34],0.779
same,glycan array binding signal (z-score),[35],0.79
same,glycan array binding signal (z-score),[36],0.492

# An excerpt of these results, with bars between the fields:
binder | measurement | setting | value
TAL6-4LysM (Trichoderma atroviride) (protein) AADSIPSISPTGIITPTPTQSGMVSNCNKFYDVHSNDGCSAIASSQHVDLSSLYKWNPAIKTDCSGLQASVYVCIGILTTSMSTTSKLPTTTSKPSTTSKPPTGITTPTPTQSGMVKNCNKFYDVHSGDGCSAIASSQKVNLSSFYLWNPAVKTDCSGLQASVFVCIGTLTTSMSTTTSKLPTTTSKPSTTSKPPTGIITPTPTQNGMVKNCNKFYDVHSGDGCSAIASSQKVNLSSFYLWNPAVKTDCSGLQASVFVCVGTATTTTAAGITTPTPTQSGMVSGCNKFYDVHAGDGCSAIASSQKIALSSLYKWNPAVKTDCSGLQASVYICIGVGNAAAARVTGALEQKLISEEDLNSAVDHHHHHH | glycan array binding signal (z-score) | [33] | 1.36
same | glycan array binding signal (z-score) | Neu5Ac(a2-6)GalNAc | 0.18
same | glycan array binding signal (z-score) | [34] | 0.779
